What all share (assay): co-IP; visible immunoprecipitation (VIP) assay: lysates of HEK293T cells coexpressing EGFP-fused and mChe-fused proteins (HMDEKN buffer: 10 mM HEPES pH 7.4, 5 mM MgSO4, 1 mM DTT, 0.5 mM EDTA, 25 mM KCl, 0.05% NP-40), precipitated with GST-tagged anti-GFP Nb on glutathione–Sepharose 4B beads, 1 h at 4°C; red fluorescence on the washed beads observed under a microscope
For assay [1], the target named is T1, EGFP-fused BROMI(1–1,190) (human) (UniProt Q96NH3).
T1 sequence: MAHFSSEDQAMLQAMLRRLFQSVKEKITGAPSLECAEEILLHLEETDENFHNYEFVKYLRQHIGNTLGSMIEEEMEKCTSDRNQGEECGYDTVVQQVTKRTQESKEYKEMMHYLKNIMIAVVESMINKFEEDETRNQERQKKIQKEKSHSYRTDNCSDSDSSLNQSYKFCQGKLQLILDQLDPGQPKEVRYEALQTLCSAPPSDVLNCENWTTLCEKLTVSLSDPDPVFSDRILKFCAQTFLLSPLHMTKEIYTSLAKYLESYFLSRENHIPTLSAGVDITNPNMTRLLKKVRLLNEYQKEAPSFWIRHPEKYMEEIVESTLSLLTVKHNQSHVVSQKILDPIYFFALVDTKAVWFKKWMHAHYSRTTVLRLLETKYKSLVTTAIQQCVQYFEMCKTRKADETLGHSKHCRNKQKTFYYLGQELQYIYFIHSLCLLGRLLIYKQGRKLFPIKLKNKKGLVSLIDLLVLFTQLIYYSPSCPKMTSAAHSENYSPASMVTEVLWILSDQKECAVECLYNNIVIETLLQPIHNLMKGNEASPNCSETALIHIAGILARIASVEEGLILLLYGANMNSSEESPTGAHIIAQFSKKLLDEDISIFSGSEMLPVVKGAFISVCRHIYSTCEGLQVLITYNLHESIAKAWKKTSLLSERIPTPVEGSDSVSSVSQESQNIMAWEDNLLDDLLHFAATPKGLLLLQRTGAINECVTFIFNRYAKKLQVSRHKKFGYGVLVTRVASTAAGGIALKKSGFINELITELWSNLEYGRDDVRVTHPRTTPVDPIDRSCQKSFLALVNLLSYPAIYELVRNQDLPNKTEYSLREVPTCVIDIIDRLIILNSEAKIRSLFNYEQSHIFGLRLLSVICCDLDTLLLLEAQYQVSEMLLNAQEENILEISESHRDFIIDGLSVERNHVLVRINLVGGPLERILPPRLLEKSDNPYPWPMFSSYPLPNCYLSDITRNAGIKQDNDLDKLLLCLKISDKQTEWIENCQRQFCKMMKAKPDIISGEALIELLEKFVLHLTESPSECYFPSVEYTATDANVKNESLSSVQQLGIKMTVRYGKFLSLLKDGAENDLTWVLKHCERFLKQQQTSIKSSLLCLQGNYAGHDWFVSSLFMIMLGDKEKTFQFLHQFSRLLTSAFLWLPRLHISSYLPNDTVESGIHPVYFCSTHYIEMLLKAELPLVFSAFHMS

In assay [2] the target is T2, EGFP-fused BROMI(1,102–1,298) (human) (UniProt Q96NH3).
T2 sequence: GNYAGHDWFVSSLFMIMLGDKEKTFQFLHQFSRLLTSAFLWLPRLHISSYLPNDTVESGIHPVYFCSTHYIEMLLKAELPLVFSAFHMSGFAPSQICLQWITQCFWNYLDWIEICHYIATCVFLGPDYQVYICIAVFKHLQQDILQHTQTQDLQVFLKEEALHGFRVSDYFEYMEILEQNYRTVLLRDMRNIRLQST

Assay [3] concerns the target T3, EGFP-fused BROMI(182–1,298) (human) (UniProt Q96NH3).
T3 sequence: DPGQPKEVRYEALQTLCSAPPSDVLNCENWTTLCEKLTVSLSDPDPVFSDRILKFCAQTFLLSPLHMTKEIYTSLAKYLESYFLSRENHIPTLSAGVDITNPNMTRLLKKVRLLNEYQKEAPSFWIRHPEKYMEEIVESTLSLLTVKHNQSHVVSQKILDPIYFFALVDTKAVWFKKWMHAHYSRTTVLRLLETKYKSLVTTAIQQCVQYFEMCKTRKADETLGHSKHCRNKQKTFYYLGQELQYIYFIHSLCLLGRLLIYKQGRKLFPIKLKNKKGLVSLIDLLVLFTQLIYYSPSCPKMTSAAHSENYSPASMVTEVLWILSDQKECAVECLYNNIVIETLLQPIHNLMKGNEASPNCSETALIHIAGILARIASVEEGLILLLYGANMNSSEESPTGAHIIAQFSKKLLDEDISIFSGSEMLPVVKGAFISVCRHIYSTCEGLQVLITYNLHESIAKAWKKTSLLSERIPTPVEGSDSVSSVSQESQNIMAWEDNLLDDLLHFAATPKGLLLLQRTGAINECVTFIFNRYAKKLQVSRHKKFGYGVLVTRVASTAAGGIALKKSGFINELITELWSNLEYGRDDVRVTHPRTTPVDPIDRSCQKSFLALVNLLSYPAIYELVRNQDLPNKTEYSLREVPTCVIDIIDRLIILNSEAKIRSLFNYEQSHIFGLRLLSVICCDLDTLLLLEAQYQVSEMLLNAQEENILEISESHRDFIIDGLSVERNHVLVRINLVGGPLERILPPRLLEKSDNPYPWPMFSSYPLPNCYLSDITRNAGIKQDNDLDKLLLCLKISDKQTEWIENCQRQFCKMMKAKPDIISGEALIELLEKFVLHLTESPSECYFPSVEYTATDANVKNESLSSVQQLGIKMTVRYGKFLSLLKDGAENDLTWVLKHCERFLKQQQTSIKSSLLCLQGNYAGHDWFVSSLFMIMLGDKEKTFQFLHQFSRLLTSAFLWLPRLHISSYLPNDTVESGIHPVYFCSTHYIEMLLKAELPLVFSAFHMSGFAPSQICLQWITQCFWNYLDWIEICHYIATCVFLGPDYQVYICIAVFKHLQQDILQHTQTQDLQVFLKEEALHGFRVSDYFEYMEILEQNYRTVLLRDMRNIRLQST

No constants are given. Whether binding was seen depends on the method and setting. Binding seen in cells or lysates may run through a third protein. Some entries that bind do so weakly or less than the wild type. Sequences can lack the tags named with a protein.

On to CCRK-mChe (from UniProt Q8IZL9-1 1-346), for which the figures for the binding entry in assay [1], in assay [2] and in assay [3] were “no binding”, “no binding” and “binds”, respectively.

The values are drawn from article PMC8500422.
